Results are given in words; binding and its absence hold for the method and conditions named. Binding seen in cells or lysates may run through a third protein. Some binding calls cover weakened binding; strength is not graded here.
Assays:
[1] = biological target: ATM phosphorylated at S1981 (ataxia telangiectasia mutated) (human (endogenous in HCT116)) (UniProt Q13315); experiment: condition: only cells treated with hydroxyurea without MS-275; co-IP; as a1, but HCT116 cells treated with hydroxyurea individually, without MS-275 (Fig. 6d, right panel); IP with anti-pS1981-ATM antibody, western blot for PR130
[2] = biological target: ATM phosphorylated at S1981 (ataxia telangiectasia mutated) (human (endogenous in HCT116)) (UniProt Q13315); experiment: co-IP; HCT116 cells treated with 1 mM hydroxyurea and 2 µM MS-275 for 20 h, then 25 nM okadaic acid for further 4 h (also okadaic acid alone); cells fixed with 1% paraformaldehyde; IP with anti-pS1981-ATM antibody, controls rabbit pre-immune serum or no antibody; washes with 900 mM NaCl, 0.5% NP-40; western blot for pATM and PR130

Protein sequences, listed by entry. Tags and fused reporters are not part of them. Lines headed by an entry give the natural chain unless they say otherwise; changes in a name come on top.
UniProt Q13315: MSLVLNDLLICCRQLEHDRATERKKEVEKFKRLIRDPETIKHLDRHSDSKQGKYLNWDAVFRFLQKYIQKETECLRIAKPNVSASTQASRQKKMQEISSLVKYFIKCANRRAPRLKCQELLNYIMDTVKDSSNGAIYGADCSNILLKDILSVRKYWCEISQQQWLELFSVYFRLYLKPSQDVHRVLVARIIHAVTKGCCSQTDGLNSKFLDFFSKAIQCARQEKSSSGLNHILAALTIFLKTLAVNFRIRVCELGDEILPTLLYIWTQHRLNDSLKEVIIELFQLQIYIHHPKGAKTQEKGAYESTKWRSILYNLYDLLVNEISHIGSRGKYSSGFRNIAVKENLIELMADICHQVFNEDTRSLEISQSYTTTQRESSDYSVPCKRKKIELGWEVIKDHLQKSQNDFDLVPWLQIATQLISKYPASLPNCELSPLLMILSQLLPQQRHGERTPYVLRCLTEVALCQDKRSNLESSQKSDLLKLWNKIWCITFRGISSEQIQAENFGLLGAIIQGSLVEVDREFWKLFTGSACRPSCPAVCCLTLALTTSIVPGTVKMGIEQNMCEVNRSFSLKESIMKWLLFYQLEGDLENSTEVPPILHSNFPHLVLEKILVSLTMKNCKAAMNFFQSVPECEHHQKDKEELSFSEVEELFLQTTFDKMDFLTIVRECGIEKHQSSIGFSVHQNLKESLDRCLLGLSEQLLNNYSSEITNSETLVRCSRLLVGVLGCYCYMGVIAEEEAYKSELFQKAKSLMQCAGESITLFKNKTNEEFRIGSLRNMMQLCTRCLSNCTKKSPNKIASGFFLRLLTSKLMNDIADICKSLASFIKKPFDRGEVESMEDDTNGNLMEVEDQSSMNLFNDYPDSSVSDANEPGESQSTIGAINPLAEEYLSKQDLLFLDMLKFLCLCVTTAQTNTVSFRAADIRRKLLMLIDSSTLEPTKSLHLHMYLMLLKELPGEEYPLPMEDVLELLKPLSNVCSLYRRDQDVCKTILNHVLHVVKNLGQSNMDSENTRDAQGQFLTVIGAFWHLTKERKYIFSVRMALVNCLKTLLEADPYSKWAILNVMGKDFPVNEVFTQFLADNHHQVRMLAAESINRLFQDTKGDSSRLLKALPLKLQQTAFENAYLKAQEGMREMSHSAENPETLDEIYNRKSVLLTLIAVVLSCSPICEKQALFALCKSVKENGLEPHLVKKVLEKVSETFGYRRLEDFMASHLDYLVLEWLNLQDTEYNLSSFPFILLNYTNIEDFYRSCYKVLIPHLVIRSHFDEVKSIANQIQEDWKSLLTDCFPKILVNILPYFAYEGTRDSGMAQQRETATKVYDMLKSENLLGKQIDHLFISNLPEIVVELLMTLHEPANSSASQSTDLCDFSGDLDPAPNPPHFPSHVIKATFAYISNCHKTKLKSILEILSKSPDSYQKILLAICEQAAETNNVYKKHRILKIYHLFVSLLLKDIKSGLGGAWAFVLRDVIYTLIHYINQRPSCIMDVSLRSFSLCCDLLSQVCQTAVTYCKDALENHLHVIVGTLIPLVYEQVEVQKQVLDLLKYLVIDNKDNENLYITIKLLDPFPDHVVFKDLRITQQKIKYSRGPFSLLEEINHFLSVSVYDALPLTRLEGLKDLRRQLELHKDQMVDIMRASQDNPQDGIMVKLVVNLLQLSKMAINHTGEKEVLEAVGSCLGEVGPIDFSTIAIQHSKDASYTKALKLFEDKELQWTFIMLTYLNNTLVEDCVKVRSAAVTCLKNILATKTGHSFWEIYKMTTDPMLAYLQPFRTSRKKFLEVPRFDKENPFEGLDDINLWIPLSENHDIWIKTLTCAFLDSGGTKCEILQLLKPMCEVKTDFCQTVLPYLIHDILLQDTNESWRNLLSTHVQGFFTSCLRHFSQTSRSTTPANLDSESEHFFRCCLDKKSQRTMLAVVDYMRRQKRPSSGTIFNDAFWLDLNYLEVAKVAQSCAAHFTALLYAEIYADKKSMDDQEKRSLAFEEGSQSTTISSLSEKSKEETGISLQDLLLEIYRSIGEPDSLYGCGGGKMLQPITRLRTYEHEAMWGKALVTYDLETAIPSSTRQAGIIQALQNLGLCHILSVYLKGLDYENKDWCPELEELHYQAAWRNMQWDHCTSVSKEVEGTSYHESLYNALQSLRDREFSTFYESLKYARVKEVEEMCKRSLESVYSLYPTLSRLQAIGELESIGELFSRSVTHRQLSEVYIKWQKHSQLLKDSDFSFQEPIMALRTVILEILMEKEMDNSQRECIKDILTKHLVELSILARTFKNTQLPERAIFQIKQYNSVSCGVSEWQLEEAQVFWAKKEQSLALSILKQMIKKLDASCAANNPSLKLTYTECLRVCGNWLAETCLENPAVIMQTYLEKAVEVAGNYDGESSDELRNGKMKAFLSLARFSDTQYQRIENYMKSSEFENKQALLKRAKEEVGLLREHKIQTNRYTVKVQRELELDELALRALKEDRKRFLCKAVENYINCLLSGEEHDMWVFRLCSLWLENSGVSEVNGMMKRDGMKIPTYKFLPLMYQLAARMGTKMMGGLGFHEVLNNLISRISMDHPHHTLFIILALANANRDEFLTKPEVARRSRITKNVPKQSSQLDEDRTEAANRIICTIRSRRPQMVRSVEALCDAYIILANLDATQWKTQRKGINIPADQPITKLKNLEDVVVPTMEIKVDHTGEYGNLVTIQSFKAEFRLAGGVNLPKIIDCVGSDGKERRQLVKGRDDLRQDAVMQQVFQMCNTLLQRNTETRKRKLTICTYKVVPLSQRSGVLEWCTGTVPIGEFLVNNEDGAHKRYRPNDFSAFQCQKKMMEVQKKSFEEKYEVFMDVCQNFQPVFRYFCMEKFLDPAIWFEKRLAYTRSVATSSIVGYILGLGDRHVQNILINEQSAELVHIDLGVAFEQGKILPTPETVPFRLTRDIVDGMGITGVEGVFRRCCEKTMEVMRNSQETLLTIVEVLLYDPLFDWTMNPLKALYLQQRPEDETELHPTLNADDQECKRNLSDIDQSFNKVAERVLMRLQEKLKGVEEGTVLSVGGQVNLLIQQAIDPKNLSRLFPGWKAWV

B1: PR130, PP2A regulatory subunit encoded by PPP2R3A (protein, UniProt Q06190-1 1-1150)
chain: MAATYRLVVSTVNHYSSVVIDRRFEQAIHYCTGTCHTFTHGIDCIVVHHSVCADLLHIPVSQFKDADLNSMFLPHENGLSSAEGDYPQQAFTGIPRVKRGSTFQNTYNLKDIAGEAISFASGKIKEFSFEKLKNSNHAAYRKGRKVKSDSFNRRSVDLDLLCGHYNNDGNAPSFGLLRSSSVEEKPLSHRNSLDTNLTSMFLQNFSEEDLVTQILEKHKIDNFSSGTDIKMCLDILLKCSEDLKKCTDIIKQCIKKKSGSSISEGSGNDTISSSETVYMNVMTRLASYLKKLPFEFMQSGNNEALDLTELISNMPSLQLTPFSPVFGTEQPPKYEDVVQLSASDSGRFQTIELQNDKPNSRKMDTVQSIPNNSTNSLYNLEVNDPRTLKAVQVQSQSLTMNPLENVSSDDLMETLYIEEESDGKKALDKGQKTENGPSHELLKVNEHRAEFPEHATHLKKCPTPMQNEIGKIFEKSFVNLPKEDCKSKVSKFEEGDQRDFTNSSSQEEIDKLLMDLESFSQKMETSLREPLAKGKNSNFLNSHSQLTGQTLVDLEPKSKVSSPIEKVSPSCLTRIIETNGHKIEEEDRALLLRILESIEDFAQELVECKSSRGSLSQEKEMMQILQETLTTSSQANLSVCRSPVGDKAKDTTSAVLIQQTPEVIKIQNKPEKKPGTPLPPPATSPSSPRPLSPVPHVNNVVNAPLSINIPRFYFPEGLPDTCSNHEQTLSRIETAFMDIEEQKADIYEMGKIAKVCGCPLYWKAPMFRAAGGEKTGFVTAQSFIAMWRKLLNNHHDDASKFICLLAKPNCSSLEQEDFIPLLQDVVDTHPGLTFLKDAPEFHSRYITTVIQRIFYTVNRSWSGKITSTEIRKSNFLQTLALLEEEEDINQITDYFSYEHFYVIYCKFWELDTDHDLYISQADLSRYNDQASSSRIIERIFSGAVTRGKTIQKEGRMSYADFVWFLISEEDKRNPTSIEYWFRCMDVDGDGVLSMYELEYFYEEQCERMEAMGIEPLPFHDLLCQMLDLVKPAVDGKITLRDLKRCRMAHIFYDTFFNLEKYLDHEQRDPFAVQKDVENDGPEPSDWDRFAAEEYETLVAEESAQAQFQEGFEDYETDEPASPSEFGNKSNKILSASLPEKCGKLQSVDEE
binding [1]: no binding | binding [2]: binds
